No constants are given. Whether binding was seen depends on the method and setting. Binding seen in cells or lysates may run through a third protein. Some entries that bind do so weakly or less than the wild type. Sequences can lack the tags named with a protein.

Chains of the proteins cited; added tags and fusions are not shown. Lines headed by an entry give the natural chain unless they say otherwise; changes in a name come on top. A line that says so, or that is headed by a name, gives the form on record, which may keep a tag or linker.
UniProt O18381: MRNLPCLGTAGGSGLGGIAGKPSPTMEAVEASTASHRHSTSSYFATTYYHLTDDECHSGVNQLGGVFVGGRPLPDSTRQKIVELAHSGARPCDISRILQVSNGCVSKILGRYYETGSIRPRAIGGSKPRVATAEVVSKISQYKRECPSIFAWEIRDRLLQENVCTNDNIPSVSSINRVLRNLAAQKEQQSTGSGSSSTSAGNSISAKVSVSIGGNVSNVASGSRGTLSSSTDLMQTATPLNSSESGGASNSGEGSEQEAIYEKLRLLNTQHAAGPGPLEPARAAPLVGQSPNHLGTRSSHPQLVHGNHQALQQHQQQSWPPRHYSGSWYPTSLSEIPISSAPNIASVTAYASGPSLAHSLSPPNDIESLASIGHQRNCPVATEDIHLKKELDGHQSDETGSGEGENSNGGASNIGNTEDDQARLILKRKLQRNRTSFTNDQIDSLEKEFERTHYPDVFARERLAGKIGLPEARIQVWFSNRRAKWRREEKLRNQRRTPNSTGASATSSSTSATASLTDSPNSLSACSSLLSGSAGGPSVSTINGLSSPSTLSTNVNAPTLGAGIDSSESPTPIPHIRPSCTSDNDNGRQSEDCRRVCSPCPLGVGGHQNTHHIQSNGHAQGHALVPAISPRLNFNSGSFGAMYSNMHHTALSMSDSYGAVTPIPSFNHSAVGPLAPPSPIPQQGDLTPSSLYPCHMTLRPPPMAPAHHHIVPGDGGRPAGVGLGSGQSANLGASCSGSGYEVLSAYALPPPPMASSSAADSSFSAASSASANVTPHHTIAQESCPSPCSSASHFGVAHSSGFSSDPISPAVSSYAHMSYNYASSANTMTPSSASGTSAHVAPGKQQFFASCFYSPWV
HA-tagged Eyeless (Ey) (O18381, form named): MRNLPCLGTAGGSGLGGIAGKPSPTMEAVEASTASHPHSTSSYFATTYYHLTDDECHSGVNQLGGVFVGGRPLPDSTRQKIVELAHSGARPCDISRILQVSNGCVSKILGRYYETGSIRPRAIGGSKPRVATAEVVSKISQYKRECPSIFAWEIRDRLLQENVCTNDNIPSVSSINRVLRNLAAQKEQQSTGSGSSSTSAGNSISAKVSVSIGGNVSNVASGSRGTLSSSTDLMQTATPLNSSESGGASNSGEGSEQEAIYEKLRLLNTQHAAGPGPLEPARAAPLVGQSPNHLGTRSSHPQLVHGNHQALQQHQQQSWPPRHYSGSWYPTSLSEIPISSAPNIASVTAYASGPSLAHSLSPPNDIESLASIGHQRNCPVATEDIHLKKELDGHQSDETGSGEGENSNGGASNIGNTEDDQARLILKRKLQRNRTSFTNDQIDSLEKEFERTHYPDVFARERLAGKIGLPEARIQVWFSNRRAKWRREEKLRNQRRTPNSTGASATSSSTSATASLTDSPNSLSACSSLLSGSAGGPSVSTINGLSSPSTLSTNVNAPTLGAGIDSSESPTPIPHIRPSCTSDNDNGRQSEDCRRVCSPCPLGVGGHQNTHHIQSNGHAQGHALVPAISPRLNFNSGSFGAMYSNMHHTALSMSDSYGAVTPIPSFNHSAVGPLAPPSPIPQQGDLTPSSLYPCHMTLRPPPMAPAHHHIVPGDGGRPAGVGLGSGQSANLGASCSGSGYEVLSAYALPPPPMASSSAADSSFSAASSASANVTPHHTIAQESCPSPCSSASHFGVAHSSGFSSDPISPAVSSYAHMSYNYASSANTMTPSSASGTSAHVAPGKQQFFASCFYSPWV

The assay has as its target T1, Flag-tagged Eyes absent (Eya), wild type (Drosophila) (UniProt Q05201).
T1 sequence: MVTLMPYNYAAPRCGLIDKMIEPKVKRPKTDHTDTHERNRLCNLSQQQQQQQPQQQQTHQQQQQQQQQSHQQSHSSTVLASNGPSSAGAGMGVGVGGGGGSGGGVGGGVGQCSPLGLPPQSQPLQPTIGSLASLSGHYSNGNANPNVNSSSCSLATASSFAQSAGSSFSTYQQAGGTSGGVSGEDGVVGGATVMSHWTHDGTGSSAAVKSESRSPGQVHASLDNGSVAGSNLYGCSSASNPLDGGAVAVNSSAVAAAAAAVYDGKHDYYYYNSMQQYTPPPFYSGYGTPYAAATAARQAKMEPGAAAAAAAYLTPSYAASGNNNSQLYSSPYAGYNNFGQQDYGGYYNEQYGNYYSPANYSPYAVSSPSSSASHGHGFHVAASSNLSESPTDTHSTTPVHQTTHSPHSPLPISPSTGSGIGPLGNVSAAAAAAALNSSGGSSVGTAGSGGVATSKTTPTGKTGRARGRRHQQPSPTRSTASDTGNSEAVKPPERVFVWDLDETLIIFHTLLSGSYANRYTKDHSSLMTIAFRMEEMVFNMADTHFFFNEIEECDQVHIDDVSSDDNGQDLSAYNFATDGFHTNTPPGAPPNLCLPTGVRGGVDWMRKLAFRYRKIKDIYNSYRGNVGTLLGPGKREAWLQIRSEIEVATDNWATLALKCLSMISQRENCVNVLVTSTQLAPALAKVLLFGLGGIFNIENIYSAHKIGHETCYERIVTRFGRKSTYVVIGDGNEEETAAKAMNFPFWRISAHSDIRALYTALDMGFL
Briefly: co-IP; Flag-Eya (wild type or mutant) co-expressed with HA-Ey, Myc-So or HA-Dac in S2 cells; lysis in Pierce IP lysis buffer; IP with anti-Flag agarose beads 2 h at 4 °C; western blot with anti-HA, anti-Myc, anti-Flag. Background: Immunoblotting shows a protein as a band on a membrane.

Turning to “HA-tagged Eyeless (Ey) (from UniProt O18381 1-857)”, the binding result was “binds”.

B1: Myc-tagged Sine oculis (So) (protein, UniProt Q27350 1-416)
chain: MLQHPATDFYDLAAANAAAVLTARHTPPYSPTGLSGSVALHNNNNNNSSTSNNNNSTLDIMAHNGGGAGGGLHLNSSSNGGGGGGVVSGGGSGGRENLPSFGFTQEQVACVCEVLQQAGNIERLGRFLWSLPQCDKLQLNESVLKAKAVVAFHRGQYKELYRLLEHHHFSAQNHAKLQALWLKAHYVEAEKLRGRPLGAVGKYRVRRKFPLPRTIWDGEETSYCFKEKSRSVLRDWYSHNPYPSPREKRDLAEATGLTTTQVSNWFKNRRQRDRAAEHKDGSTDKQHLDSSSDSEMEGSMLPSQSAQHQQQQQQQQHSPGNSSGNNNGLHQQQLQHVAAEQGLQHHPHQPHPASNIANVAATKSSGGGGGGGVSAAAAAQMQMPPLTAAVAYSHLHSVMGAMPMTAMYDMGEYQHL
Consider B1, for which the binding result is recorded as “binds”.

(Values after publication PMC4793267.)
